## Percent effect of library compounds

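Growth of Mycobacterium tuberculosis over 4 days (cholesterol / DPPC medium with tyloxapol); the read-out is not stated. Tested at 50 µM. Direction is inferred from retests: higher values go with more growth inhibition. Of about 69,000 compounds tested this way, about 370 (0.54%) reached 50% or more in at least one test.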

Results are given as percent effect.
The record does not define 0% and 100%; most values in the screen are far below 50% and negative numbers occur (in some assays of this library far below -100).
This is an unselected part of the compounds tested.
Two or more numbers in one place are separate tests of the same structure; such repeats can differ widely.

For CCn1cc(NC(=O)C(C)n2ncc(Cl)c2C)c(C(=O)NC)n1 (stereo unspecified) the result was 9.294%. Result for O=C(O)C(F)(F)F.[H][C@@]12CCCO[C@]1([H])[C@H](N(C)Cc1ccco1)CN(C(=O)c1cnccn1)C2 was 12.2%. With Cc1ccc(CNC(=O)C2CCN(C(=O)c3ccco3)CC2)n1C the screen gave -45.16%. With CN1CCC(N(Cc2ccccc2)C(=O)c2nccn3ccnc23)CC1 the screen gave -1.326%. Cn1cc(C(O)CNC(=O)c2sccc2OC(F)F)cn1 (stereo unspecified) gave -18.24%. CN(C)Cc1nnc(C2CCCN(c3nc(C(N)=O)cs3)C2)n1C (stereo unspecified) gave 5.519%. For NC(=O)CCNC(=O)C1(N2CCCCC2)Cc2ccccc2C1 the result was -27.34%.

For COc1ccc(CCNC(=O)NCC(O)c2cccc(F)c2)cc1 (stereo unspecified) the result was -20.63%. CCn1cc(NC(=O)c2cc(C)nc(N3CCOCC3)n2)cn1 gave 11.54%. For CCc1nc(NS(=O)(=O)c2ccc(F)cc2Cl)no1 the result was -0.6821%. Result for Cc1nnnn1-c1cc(NCc2cccc(C#N)c2)ccc1F was 12.19%. With O=C(O)C(F)(F)F.[H][C@@]12CN(C(=O)c3cccn3C)C[C@]1([H])C(=O)N(Cc1csc(C)n1)C2 the screen gave -22.81%. Result for COc1cccc(COC(C)C(=O)NC2CCN(CC(N)=O)CC2)c1 (stereo unspecified) was 5.733%. Cn1c(N2CC[C@H](O)C2)nc2cc(C(N)=O)ccc21 read -6.304%.

CCN(Cc1ccccc1)C(=O)CN1CCCCC1Cn1cncn1 (stereo unspecified) read 2.993%. For c1cncc(COc2ccccc2CNC2CCc3ncnn3C2)c1 (stereo unspecified) the result was -19.58%. For Cl.c1cc(CNCc2ccnc(N3CCCC3)c2)c2c(c1)OCCO2 the result was -31.97%. CC1(C)CNC(=O)CN(C(=O)COc2ccccc2)C1 read 10.84%. Result for O=C(O)C(F)(F)F.[H][C@@]12CCN(CC3CCOCC3)C[C@@]1([H])O[C@@H](C(=O)N1CCC(C)CC1)C2 was 0.6116%. For O=C(O)C(F)(F)F.[H][C@]12CCC[C@@]1(COCc1ccccn1)CN(S(=O)(=O)N(C)C)C2 the result was -16.59%. Result for Cc1cc(C)c(C#N)c(NCCSc2nncn2C)n1 was 9.989%.

COC(=O)CNC(=O)c1scnc1C read -5.145%. For CNC(=O)C1CCCN1C(=O)NCCCc1cccc(F)c1 (stereo unspecified) the result was 13.51%. With CCOC(=O)c1c(NC(=O)C2CCN(C(C)=O)CC2)sc(C)c1CC the screen gave 12.1%. COCCNC(=O)Nc1ccc(-c2nc(C(C)C)no2)cc1 gave 12.59%. Cn1ccc(C(=O)N2CCN(CCc3ccccc3)CC2)cc1=O gave -0.53%. Result for COc1ccc(O[C@H]2COCCN(C(=O)c3ccno3)C2)cc1 was -15.86%. For COCCCNC(=O)CN(C)C(=O)c1cc(Cl)ccc1O the result was -15.36%.

For COc1ccccc1OCCCc1cccc(C#N)n1 the result was 15.45%. Result for CC1COCCN1C(=O)NCCCn1ccnc1 (stereo unspecified) was -26.99%. For O=C(O)C(F)(F)F.[H][C@@]12CCN(CC3CC3)[C@@]1([H])CCN2C(=O)c1cccc(Cl)c1 the result was -0.927% & -8.175%. Cc1cc(C)nc(N(C)CCN(C)C2CCCC2)n1 read -10.44%. For Cc1cc(N(C)C)nc(N2CCn3c(nnc3C(C)C)C2)n1 the result was -5.691%. Result for CN1CCN(C(=O)c2cc(-c3ccco3)cs2)CC1 was -2.245%. For NC(=O)CN1CCCN(C(=O)Cc2ccc(F)cc2)CC1 the result was 3.063%.

With CC(C)(C)c1nc(CN(Cc2cccs2)C2CCS(=O)(=O)C2)no1 (stereo unspecified) the screen gave -12.35%.

Some entries from above, unchanged:

Compound,percent effect
CC1(C)CNC(=O)CN(C(=O)COc2ccccc2)C1,10.84
c1cncc(COc2ccccc2CNC2CCc3ncnn3C2)c1 (stereo unspecified),-19.58

Source: ChEMBL document CHEMBL3988442, “University of Dundee, Small-Polar-MMV Screening Library” (2021).